PubChem BioAssay AID1159584 – Peter MacCallum Cancer Centre, 2016

- Aim: 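Knock-downs that harm CDH1-null cells more than parental MCF10A cells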 (primary screen)
- Cell system: human MCF10A breast epithelial cells, parental and CDH1-null
- Knock-down reagent: siRNA against human genes
- Measurement: 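ATP luminescence (CellTiter-Glo) viability per line relative to mean mock wells over all plates, and the ratio of CDH1-null to parental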
- Scale: CDH1-null / parental viability ratio: higher = CDH1-null cells survive relatively better than parental; CDH1-null viability vs mock: higher = more viable CDH1-null cells; parental viability vs mock: higher = more viable parental cells
In all, the deposit lists about 18,000 reagents; this is an unselected part. Not stated in the record: the amount of reagent, the time to read-out.

| target gene | CDH1-null / parental viability ratio | CDH1-null viability vs mock (fraction of mock) | parental viability vs mock (fraction of mock) |
| --- | --- | --- | --- |
| RPP38-DT (RPP38 divergent transcript) | 1.45 | 0.64 | 0.44 |
| SAT1 (spermidine/spermine N1-acetyltransferase 1) | 0.85 | 0.71 | 0.84 |
| PRIM2 (DNA primase subunit 2) | 0.69 | 0.59 | 0.86 |
| TEDDM1 (transmembrane epididymal protein 1) | 1.1 | 0.76 | 0.69 |
| SMC1B (structural maintenance of chromosomes 1B) | 1.11 | 1.07 | 0.96 |
| BTG1 (BTG anti-proliferation factor 1) | 1.17 | 0.82 | 0.7 |
| PLCD4 (phospholipase C delta 4) | 1.08 | 0.97 | 0.9 |
| GP1BA (glycoprotein Ib platelet subunit alpha) | 1.15 | 0.86 | 0.75 |
| DPPA3 (developmental pluripotency associated 3) | 0.71 | 0.55 | 0.77 |
| SIGLEC7 (sialic acid binding Ig like lectin 7) | 0.77 | 0.6 | 0.78 |
| SDC3 (syndecan 3) | 0.84 | 0.8 | 0.95 |
| PDZRN4 (PDZ domain containing ring finger 4) | 0.94 | 0.88 | 0.94 |
| CMSS1 (cms1 ribosomal small subunit homolog) | 0.97 | 0.92 | 0.95 |
| STOX1 (storkhead box 1) | 1.04 | 1.12 | 1.08 |
| APOA5 (apolipoprotein A5) | 1.13 | 1.11 | 0.98 |
| FAM234A (family with sequence similarity 234 member A) | 1.16 | 0.58 | 0.5 |
| ALKBH4 (alkB homolog 4, lysine demethylase) | 0.89 | 0.62 | 0.7 |
| PIK3R5 (phosphoinositide-3-kinase regulatory subunit 5) | 0.86 | 0.65 | 0.76 |
| PGA3 (pepsinogen A3) | 1.43 | 0.99 | 0.69 |
| ZBTB44 (zinc finger and BTB domain containing 44) | 1 | 0.88 | 0.88 |
| MYBPC1 (myosin binding protein C1) | 0.92 | 0.74 | 0.8 |
| SCAND3 (SCAN domain containing 3) | 1.09 | 0.62 | 0.57 |
| NFATC2IP (nuclear factor of activated T cells 2 interacting protein) | 1.39 | 0.93 | 0.67 |
| KHDC3L | 0.87 | 0.66 | 0.76 |
| YIPF5 (Yip1 domain family member 5) | 0.99 | 0.92 | 0.93 |
| SLC25A52 | 1.09 | 0.75 | 0.69 |
| ZSCAN9 (zinc finger and SCAN domain containing 9) | 0.95 | 0.94 | 0.99 |
| CEP20 (centrosomal protein 20) | 0.93 | 0.8 | 0.86 |

Not a retest: an excerpt of the list.
| target gene | CDH1-null / parental viability ratio | CDH1-null viability vs mock (fraction of mock) | parental viability vs mock (fraction of mock) |
| --- | --- | --- | --- |
| TEDDM1 (transmembrane epididymal protein 1) | 1.1 | 0.76 | 0.69 |
| SMC1B (structural maintenance of chromosomes 1B) | 1.11 | 1.07 | 0.96 |
| BTG1 (BTG anti-proliferation factor 1) | 1.17 | 0.82 | 0.7 |
| PLCD4 (phospholipase C delta 4) | 1.08 | 0.97 | 0.9 |
